PubChem BioAssay AID493246 – Drosophila RNAi Screening Center – 2011
The screen tested about 21,000 reagents; shown is an unselected part of those that have a named target and a result. Of all reagents, 429 (2%) got an active call. 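Values are raw and not normalised between plates; calls rest on per-plate z-scores that were not deposited.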 A plus sign joins genes that one reagent is predicted to hit. Reagent sequences are not shown. Not given: the amount of reagent, the time to read-out.

- Aim: 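Identify essential fly genes by loss of cell viability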 (primary screen)
- Cell system: Drosophila Kc and S2R+ cells
- Reagents: long dsRNA against Drosophila genes
- Detection: 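Raw, unnormalised count of remaining cells in each well; per-plate z-scores of cell number underlie the calls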
- Reading the numbers: Kc cell number and S2R+ cell number: higher = more cells remaining
- Active means: 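Counted as a hit if cell number falls by a z-score of at least 3 within its plate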

Depletion of Nep6 [DRSC19877] came out at: Kc cell number, rep 1 = 4.80e5; S2R+ cell number, rep 1 = 6.02e5; inactive. Depletion of CG13622 [DRSC14624] resulted in: Kc cell number, rep 1 = 1.66e6; Kc cell number, rep 2 = 1.68e6; S2R+ cell number, rep 1 = 1.03e6; S2R+ cell number, rep 2 = 1.16e6; inactive. Silencing of PI31 [DRSC07306] gave: Kc cell number, rep 1 = 1.39e6; Kc cell number, rep 2 = 1.48e6; S2R+ cell number, rep 1 = 1.11e6; S2R+ cell number, rep 2 = 1.17e6; inactive. Ag5r2 [DRSC19328] gave Kc cell number, rep 1 = 1.46e6; Kc cell number, rep 2 = 1.48e6; S2R+ cell number, rep 1 = 1.09e6; S2R+ cell number, rep 2 = 1.14e6; inactive. With knock-down of TpnC41C [DRSC04916] the results were Kc cell number, rep 1 = 1.56e6; Kc cell number, rep 2 = 1.63e6; S2R+ cell number, rep 1 = 1.24e6; S2R+ cell number, rep 2 = 1.31e6; inactive. CG10395 [DRSC04840] showed Kc cell number, rep 1 = 1.46e6; Kc cell number, rep 2 = 1.57e6; S2R+ cell number, rep 1 = 1.14e6; S2R+ cell number, rep 2 = 1.07e6; inactive.

Silencing of GstE2 [DRSC06672] gave: Kc cell number, rep 1 = 1.83e6; Kc cell number, rep 2 = 1.84e6; S2R+ cell number, rep 1 = 1.18e6; S2R+ cell number, rep 2 = 1.35e6; inactive. Silencing of CG33061 [DRSC09938] resulted in: Kc cell number, rep 1 = 1.47e6; Kc cell number, rep 2 = 1.49e6; S2R+ cell number, rep 1 = 1.20e6; S2R+ cell number, rep 2 = 1.32e6; inactive. Knock-down of CG5819 [DRSC04520] came out at: Kc cell number, rep 1 = 1.48e6; Kc cell number, rep 2 = 1.74e6; S2R+ cell number, rep 1 = 1.40e6; S2R+ cell number, rep 2 = 4.70e5; inactive. Against eya [DRSC03510], the entry reads Kc cell number, rep 1 = 1.27e6; Kc cell number, rep 2 = 1.42e6; S2R+ cell number, rep 1 = 5.57e5; S2R+ cell number, rep 2 = 4.73e5; inactive. For CG7685 [DRSC16285], the values are Kc cell number, rep 1 = 1.35e6; Kc cell number, rep 2 = 1.32e6; S2R+ cell number, rep 1 = 8.93e5; S2R+ cell number, rep 2 = 1.02e6; inactive. After knock-down of CG32985 [DRSC02634], the screen gave Kc cell number, rep 1 = 1.64e6; Kc cell number, rep 2 = 1.62e6; S2R+ cell number, rep 1 = 1.20e6; S2R+ cell number, rep 2 = 1.30e6; inactive.

With knock-down of Prx6c [DRSC06080], the record shows Kc cell number, rep 1 = 1.56e6; Kc cell number, rep 2 = 1.66e6; S2R+ cell number, rep 1 = 1.18e6; S2R+ cell number, rep 2 = 1.36e6; inactive. DCAF12 [DRSC15475] gave Kc cell number, rep 1 = 1.44e6; Kc cell number, rep 2 = 1.52e6; S2R+ cell number, rep 1 = 1.18e6; S2R+ cell number, rep 2 = 1.28e6; inactive. With knock-down of ckd [DRSC08418] the results were Kc cell number, rep 1 = 1.48e6; Kc cell number, rep 2 = 1.32e6; S2R+ cell number, rep 1 = 1.04e6; S2R+ cell number, rep 2 = 1.35e6; inactive. Uba2 [DRSC11311] scored Kc cell number, rep 1 = 1.70e6; Kc cell number, rep 2 = 1.62e6; S2R+ cell number, rep 1 = 1.30e6; S2R+ cell number, rep 2 = 1.31e6; inactive. CG17343 [DRSC02606] scored Kc cell number, rep 1 = 1.49e6; Kc cell number, rep 2 = 1.60e6; S2R+ cell number, rep 1 = 1.30e6; S2R+ cell number, rep 2 = 3.97e5; inactive. With knock-down of wap [DRSC20626], the screen gave Kc cell number, rep 1 = 1.52e6; Kc cell number, rep 2 = 1.59e6; S2R+ cell number, rep 1 = 1.03e6; S2R+ cell number, rep 2 = 1.08e6; inactive.

Against CG9215 [DRSC20171] the deposit lists Kc cell number, rep 1 = 1.43e6; Kc cell number, rep 2 = 1.40e6; S2R+ cell number, rep 1 = 1.05e6; S2R+ cell number, rep 2 = 1.12e6; inactive. Depletion of sloth2 + sloth1 [DRSC17922] gave: Kc cell number, rep 1 = 1.54e6; Kc cell number, rep 2 = 1.47e6; S2R+ cell number, rep 1 = 1.05e6; S2R+ cell number, rep 2 = 1.17e6; inactive. With knock-down of sloth2 + sloth1 [DRSC17923], the screen gave Kc cell number, rep 1 = 1.55e6; Kc cell number, rep 2 = 1.50e6; S2R+ cell number, rep 1 = 1.06e6; S2R+ cell number, rep 2 = 1.16e6; inactive.

Entries above whose gene name starts with S or s:
sloth2 + sloth1 [DRSC17922] — Kc cell number, rep 1 = 1.54e6; Kc cell number, rep 2 = 1.47e6; S2R+ cell number, rep 1 = 1.05e6; S2R+ cell number, rep 2 = 1.17e6; activity call = inactive
sloth2 + sloth1 [DRSC17923] — Kc cell number, rep 1 = 1.55e6; Kc cell number, rep 2 = 1.50e6; S2R+ cell number, rep 1 = 1.06e6; S2R+ cell number, rep 2 = 1.16e6; activity call = inactive
